Laboratory results taken from article PMC11059309.
No constants are given. Whether binding was seen depends on the method and setting. Binding seen in cells or lysates may run through a third protein. Some entries that bind do so weakly or less than the wild type.

Sequences of proteins named here, by UniProt entry; tags and fusion partners are left off.
UniProt P08908: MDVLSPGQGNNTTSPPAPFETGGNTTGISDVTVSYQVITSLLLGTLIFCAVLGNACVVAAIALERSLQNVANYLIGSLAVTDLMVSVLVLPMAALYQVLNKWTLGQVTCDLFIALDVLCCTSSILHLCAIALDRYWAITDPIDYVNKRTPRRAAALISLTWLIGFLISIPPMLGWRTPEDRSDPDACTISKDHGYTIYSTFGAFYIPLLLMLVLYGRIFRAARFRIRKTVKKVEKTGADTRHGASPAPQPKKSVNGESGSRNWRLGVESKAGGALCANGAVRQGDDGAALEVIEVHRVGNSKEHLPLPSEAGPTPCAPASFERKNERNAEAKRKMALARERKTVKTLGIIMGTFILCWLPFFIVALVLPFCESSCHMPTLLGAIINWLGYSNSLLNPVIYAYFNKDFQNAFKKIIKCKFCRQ
UniProt P32121: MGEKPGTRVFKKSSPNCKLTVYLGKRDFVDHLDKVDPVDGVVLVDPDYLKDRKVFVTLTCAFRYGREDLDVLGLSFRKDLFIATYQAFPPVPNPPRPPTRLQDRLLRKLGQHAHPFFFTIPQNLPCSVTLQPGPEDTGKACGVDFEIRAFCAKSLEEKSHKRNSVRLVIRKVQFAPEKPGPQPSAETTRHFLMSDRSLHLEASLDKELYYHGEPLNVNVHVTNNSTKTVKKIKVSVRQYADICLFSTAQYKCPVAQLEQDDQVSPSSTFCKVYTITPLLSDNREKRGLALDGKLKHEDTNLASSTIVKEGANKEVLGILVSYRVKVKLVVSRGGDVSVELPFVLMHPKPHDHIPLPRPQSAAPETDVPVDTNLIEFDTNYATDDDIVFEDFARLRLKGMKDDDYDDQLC

Molecular target: 5-HT1A receptor (serotonin 1A receptor) (UniProt P08908)
Test: split reporter; NanoBiT β-arrestin 2 recruitment in living HEK 293 cells transiently transfected with 5HT1a-LgBiT and SmBiT-β-Arrestin2; HBSS/HEPES with 2.5 µM coelenterazine h, reader at 30 °C; stimulation with 5.0 µM serotonin, luminescence for 60 min, AUC relative to vehicle-treated control; cells pretreated 48 h or 72 h with water soluble cholesterol (7.0 µM), Ze 117 (25.0 µg/ml), simvastatin (1.0 µM), dexamethasone (1.0 µM) or dexamethasone + Ze 117

- binding: binds
Substance: β-arrestin 2 (from UniProt P32121 1-409)
